These results are taken from publication PMC4285172.

The chains behind the UniProt entries cited, without tags or fusion partners. Residues count along the entry.
UniProt Q9QUN7, residues 25-784: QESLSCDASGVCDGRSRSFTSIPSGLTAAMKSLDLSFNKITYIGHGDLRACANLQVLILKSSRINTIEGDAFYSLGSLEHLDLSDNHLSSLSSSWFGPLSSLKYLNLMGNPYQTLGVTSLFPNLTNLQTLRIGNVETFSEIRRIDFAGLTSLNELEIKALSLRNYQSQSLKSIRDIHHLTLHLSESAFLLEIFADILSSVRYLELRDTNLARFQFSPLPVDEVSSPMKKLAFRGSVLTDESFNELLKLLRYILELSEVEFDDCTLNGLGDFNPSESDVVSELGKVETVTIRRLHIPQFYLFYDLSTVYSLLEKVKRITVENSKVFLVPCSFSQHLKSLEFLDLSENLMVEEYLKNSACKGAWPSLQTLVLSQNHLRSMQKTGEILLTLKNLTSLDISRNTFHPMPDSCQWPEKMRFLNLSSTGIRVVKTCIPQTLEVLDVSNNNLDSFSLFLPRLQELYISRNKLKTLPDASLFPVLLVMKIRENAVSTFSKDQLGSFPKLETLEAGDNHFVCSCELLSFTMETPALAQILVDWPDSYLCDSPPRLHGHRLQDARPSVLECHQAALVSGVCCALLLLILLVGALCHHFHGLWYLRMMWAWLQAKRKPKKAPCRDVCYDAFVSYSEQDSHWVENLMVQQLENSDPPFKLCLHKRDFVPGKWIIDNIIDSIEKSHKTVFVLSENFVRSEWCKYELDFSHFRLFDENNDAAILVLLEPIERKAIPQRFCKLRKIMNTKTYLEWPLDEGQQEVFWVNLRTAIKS
UniProt Q9QUK6, residues 26-835: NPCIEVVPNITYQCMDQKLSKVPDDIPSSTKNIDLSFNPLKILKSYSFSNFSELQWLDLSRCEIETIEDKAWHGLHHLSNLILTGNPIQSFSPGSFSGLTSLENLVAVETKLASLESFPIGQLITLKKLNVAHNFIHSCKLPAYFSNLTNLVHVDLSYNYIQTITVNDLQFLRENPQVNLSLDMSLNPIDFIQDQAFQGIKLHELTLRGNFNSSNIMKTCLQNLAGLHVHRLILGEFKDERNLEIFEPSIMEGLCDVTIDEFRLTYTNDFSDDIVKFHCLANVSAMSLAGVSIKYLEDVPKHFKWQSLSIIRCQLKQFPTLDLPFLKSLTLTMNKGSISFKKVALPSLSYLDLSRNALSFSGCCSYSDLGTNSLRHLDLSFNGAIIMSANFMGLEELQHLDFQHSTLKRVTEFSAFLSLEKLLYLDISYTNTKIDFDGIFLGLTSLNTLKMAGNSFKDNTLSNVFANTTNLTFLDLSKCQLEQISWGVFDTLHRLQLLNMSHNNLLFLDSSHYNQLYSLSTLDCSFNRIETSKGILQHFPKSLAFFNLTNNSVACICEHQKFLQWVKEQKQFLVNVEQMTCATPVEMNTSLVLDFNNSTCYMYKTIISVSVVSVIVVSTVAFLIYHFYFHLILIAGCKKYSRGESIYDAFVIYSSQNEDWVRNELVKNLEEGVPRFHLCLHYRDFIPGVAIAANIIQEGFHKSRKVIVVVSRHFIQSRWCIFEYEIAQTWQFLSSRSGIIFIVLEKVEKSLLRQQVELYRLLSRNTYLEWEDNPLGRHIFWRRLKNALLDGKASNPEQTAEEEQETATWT

Assay [1] concerns the target Toll-like receptor (TLR)-2 (mouse (endogenous in BMDMs from C57BL/6 mice)) (UniProt Q9QUN7). Kind of assay: condition: only macrophages treated with vLPS (1 μg/ml); co-IP; BMDMs treated with vLPS (1 μg/ml) without cytochalasin-D; lysed with 1% Triton X-100, 10 mM Tris-HCl pH 7.4, 150 mM NaCl, 1 mM EDTA pH 8.0; TLR-2 immunoprecipitated overnight with anti-TLR-2 and protein A Sepharose, TLR-4 detected by immunoblot. A general note: Immunoblotting shows a protein as a band on a membrane.

Assay [2] has the same target. In words: co-IP; BMDMs untreated, treated with avLPS (1 μg/ml), or treated with vLPS (1 μg/ml) in presence of cytochalasin-D (1 μg/ml); lysed with 1% Triton X-100, 10 mM Tris-HCl pH 7.4, 150 mM NaCl, 1 mM EDTA pH 8.0; TLR-2 immunoprecipitated overnight with anti-TLR-2 and protein A Sepharose, TLR-4 detected by immunoblot.

Results are given in words; binding and its absence hold for the method and conditions named. In cells and extracts the contact can be indirect. Some results given as binding are weak or reduced against the parent protein; the word gives no strength.

Consider “Toll-like receptor (TLR)-4 (from UniProt Q9QUK6 26-835)”, for which the figures for the binding result in assay [1] and in assay [2] were “no binding” and “binds”, respectively.
